Assay results published in paper PMC3765211.
Results are given in words; binding and its absence hold for the method and conditions named. Binding seen in cells or lysates may run through a third protein. Here binding means that the protein was enriched with, or labelled near, the bait; the list need not be complete. Where a sequence is shown, tags or fusion partners need not be part of it.

Protein sequences, listed by entry. Tags and fused reporters are not part of them.
UniProt O95782: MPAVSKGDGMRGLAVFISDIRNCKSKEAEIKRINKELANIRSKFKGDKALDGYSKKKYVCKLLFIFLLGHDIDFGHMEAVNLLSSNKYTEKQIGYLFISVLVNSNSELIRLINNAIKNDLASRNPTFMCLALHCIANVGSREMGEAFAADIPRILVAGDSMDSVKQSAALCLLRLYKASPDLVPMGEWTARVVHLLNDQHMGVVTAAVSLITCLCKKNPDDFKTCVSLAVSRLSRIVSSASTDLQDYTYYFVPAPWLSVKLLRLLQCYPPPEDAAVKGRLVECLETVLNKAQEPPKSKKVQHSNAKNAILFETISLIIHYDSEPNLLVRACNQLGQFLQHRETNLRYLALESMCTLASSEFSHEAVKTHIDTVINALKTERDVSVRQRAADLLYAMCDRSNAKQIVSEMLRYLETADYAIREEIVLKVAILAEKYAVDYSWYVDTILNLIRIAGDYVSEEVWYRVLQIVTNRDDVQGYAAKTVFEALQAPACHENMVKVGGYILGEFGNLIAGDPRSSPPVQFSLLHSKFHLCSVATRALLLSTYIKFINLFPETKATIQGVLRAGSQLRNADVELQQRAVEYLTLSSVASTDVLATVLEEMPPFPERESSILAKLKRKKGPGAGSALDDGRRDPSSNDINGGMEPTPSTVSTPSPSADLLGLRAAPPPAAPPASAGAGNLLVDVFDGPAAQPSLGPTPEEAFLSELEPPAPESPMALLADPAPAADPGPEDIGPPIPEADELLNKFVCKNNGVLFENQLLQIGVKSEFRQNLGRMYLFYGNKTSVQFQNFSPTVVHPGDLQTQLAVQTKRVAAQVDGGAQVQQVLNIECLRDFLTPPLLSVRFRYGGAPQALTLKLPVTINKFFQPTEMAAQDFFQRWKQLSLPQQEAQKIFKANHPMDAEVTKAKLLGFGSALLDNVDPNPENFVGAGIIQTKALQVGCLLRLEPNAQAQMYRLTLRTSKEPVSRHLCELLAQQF
UniProt O94973: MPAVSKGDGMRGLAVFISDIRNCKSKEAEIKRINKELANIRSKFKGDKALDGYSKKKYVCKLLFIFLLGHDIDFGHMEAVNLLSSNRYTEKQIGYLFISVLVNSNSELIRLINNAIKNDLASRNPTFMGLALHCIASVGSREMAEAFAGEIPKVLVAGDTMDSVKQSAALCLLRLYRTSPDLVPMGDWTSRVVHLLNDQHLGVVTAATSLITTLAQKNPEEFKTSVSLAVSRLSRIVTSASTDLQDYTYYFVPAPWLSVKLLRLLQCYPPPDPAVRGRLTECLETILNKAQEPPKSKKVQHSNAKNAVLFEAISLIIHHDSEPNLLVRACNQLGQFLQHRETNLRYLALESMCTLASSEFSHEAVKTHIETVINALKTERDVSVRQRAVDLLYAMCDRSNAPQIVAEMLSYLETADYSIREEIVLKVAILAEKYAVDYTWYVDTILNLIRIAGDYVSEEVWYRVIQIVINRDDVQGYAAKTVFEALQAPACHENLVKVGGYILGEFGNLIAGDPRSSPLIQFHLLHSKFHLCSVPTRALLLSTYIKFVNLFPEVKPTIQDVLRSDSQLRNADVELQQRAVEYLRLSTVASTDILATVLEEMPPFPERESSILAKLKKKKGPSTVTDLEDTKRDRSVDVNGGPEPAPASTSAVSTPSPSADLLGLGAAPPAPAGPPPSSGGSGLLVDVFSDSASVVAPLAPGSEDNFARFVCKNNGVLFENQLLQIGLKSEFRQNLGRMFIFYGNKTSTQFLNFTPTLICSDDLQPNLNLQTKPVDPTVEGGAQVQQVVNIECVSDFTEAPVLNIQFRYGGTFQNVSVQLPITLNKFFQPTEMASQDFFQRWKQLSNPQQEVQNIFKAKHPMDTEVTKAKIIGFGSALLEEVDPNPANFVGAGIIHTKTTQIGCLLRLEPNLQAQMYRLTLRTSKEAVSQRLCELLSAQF
UniProt P63010: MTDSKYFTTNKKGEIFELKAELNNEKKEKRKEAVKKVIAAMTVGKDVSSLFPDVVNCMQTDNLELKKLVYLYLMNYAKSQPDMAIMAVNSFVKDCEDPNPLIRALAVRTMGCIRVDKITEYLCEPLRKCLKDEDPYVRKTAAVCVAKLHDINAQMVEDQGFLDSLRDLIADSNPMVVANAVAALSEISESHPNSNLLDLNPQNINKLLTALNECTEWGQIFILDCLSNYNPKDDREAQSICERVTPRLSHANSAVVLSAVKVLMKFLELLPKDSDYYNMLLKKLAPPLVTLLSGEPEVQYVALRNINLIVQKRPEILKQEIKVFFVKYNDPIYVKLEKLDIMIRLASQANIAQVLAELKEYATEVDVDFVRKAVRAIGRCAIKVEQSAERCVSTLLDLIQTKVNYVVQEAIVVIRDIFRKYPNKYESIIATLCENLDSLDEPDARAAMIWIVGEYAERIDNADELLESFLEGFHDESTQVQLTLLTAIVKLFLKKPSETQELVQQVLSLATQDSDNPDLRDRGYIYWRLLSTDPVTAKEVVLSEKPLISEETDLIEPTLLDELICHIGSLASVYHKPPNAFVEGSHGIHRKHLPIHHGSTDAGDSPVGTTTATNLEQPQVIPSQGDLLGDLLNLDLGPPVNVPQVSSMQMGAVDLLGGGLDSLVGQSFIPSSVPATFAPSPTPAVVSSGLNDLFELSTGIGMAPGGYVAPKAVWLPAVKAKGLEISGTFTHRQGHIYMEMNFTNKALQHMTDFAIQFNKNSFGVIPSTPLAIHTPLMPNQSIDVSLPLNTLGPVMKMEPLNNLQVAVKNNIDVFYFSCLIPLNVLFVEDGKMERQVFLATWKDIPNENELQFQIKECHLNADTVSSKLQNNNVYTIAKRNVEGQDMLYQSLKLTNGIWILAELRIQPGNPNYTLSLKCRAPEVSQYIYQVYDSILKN
UniProt Q96CW1: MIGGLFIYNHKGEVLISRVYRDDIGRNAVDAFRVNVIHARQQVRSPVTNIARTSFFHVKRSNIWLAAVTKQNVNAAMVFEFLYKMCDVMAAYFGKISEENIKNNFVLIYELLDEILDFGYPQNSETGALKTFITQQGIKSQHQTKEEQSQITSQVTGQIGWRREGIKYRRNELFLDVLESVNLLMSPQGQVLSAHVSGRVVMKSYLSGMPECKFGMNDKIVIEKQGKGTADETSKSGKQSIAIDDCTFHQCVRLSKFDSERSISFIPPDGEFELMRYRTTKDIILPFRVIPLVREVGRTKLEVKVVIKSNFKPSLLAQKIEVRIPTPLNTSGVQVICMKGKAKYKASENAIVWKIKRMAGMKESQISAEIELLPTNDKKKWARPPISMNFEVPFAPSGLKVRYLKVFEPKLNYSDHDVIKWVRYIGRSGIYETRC

molecular target: T1, BMCC1 GST F3 (amino acids 575-904) (human) (UniProt Q8WUY3); experiment: affinity purification with mass spectrometry; BMCC1 GST fragment 3 crosslinked to glutathione agarose, incubated with total LNCaP lysate at 4°C overnight (MCLB: 50 mM Tris pH 7.4, 150 mM NaCl, 1 mM EDTA, 1% NP-40); eluted proteins on silver-stained SDS-PAGE, 50 kDa and 110 kDa bands identified by MALDI MS/MS; only the target purified
T1 sequence: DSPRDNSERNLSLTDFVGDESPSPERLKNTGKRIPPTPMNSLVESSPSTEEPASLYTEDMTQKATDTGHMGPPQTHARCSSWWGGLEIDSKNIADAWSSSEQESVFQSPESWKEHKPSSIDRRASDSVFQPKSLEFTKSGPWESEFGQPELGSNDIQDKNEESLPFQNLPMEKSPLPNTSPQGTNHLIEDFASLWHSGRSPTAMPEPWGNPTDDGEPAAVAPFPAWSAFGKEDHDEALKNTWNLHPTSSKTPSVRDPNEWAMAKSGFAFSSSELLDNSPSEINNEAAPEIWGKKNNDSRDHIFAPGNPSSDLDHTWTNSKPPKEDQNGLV

**Q.** With AP-2A1 (from UniProt O95782 1-977) as the substance, how does the binding read?
**A.** binds

**Q.** Which binding does the source give for AP-2A2 (from UniProt O94973 1-939) here?
**A.** binds

**Q.** “AP-2B1/β-adaptin (from UniProt P63010 1-937)” was tested. Which binding did it give?
**A.** binds

**Q.** With AP-2M1 (from UniProt Q96CW1 1-435) as the substance, how does the binding read?
**A.** binds
